In US5972599 one finds binding result and Kd data, which are given here for 25 sequences.

The chains behind the UniProt entries cited, without tags or fusion partners. Residues count along the entry.
UniProt P01375, 77-233: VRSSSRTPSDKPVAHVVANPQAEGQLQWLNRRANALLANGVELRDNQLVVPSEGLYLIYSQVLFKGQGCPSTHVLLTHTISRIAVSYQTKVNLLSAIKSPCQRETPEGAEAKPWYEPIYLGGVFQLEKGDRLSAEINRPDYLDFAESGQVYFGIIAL

Data set [1] addresses T1, IL-10 (Mus musculus) (UniProt P18893).
T1 sequence (looked up, limits assumed): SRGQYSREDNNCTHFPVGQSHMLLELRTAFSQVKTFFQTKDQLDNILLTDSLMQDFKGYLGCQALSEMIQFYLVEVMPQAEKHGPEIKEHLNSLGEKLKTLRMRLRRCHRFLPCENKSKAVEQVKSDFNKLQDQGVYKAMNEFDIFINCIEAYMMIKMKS
As to the kind of experiment: filter binding. The conditions noted are these: 2'-F all C and U; does not bind mIL-10 with high affinity; purified recombinant protein; protein details: R & D Systems.

The target in data set [2] is TNF-alpha (Homo sapiens) (UniProt P01375). The experiment in a line: filter binding. The following applies: purified recombinant protein, protein details: Genzyme or R&D Systems; for binding result: 2'-F all C and U, NB, 2'F version.

For some of these results: Negatives hold for the conditions tested. For some of these results: A weaker result is weaker than the reference pair of the same experiment. For some of these results: Protein sequences can lack the tags named with them.

Broadly, the Kd is the concentration at which binding is half-saturated.

For “GGGAGACAAGAAUAAACGCUCAAACAUCGUAUAACUCUAAGGGCCUGGAUAUACGAUGAAUUCGACAGGAGGCUCACAACAGGC [IL-10 ligand 43]”, the binding result in data set [1] was “binds more weakly”.
As for “GGGAGCUCAGAAUAAACGCUCAAACGGCUGACAACGGCUGGACUUGCGUAUUGUUCGACAUGAGGCCCGGAUCCGGC [TNF 1A]”, in data set [2] (no Kd shown means above 1 uM), the Kd was above 1 µM.
On to “GGGAGCUCAGAAUAAACGCUCAACGCCGAGACCCACCUCAUAACACCGCUACCUUCGACAUGAGGCCCGGAUCCGGC [TNF 10C 2'F]”, for which the binding result in data set [2] (variant of TNF 10C) is listed as “no binding”.
For “GGGAGCUCAGAAUAAACGCUCAACGGGUGAAUCACGGCUGGUGCGUUGCCCCUUCGACAUGAGGCCCGGAUCCGGC [TNF 1C]”, the Kd in data set [2] (no Kd shown means above 1 uM) is above 1 µM.
On to “GGGAGCUCAGAAUAAACGCUCAACGUCGACGCACUGUGCCGCCUCACACACGCUUCGACAUGAGGCCCGGAUCCGGC [TNF 2C]”, for which the Kd in data set [2] (no Kd shown means above 1 uM) was above 1 µM.
For “GGGAGCUCAGAAUAAACGCUCAACGUGAUUUGGCCACGGGAAAGAGCCAUACCUUCGACAUGAGGCCCGGAUCCGGC [TNF 13A]”, in data set [2] (no Kd shown means above 1 uM), the dissociation constant (Kd) is above 1 µM.
Take “GGGAGCUCAGAAUAAACGCUCAACGUUGAACGCUUGGUUUCAUGUCCCUCGCCUUCGACAUGAGGCCCGGAUCCGGC [TNF 14A]”: the Kd in data set [2] (no Kd shown means above 1 uM) was above 1 µM.
Consider “GGGAGCUCAGAAUAAACGCUCAACUAGGCCCACCGUCCCUUCUAACAACGUCUUCGACAUGAGGCCCGGAUCCGGC [TNF 4C 2'F]”, for which the binding result in data set [2] (variant of TNF 4C) is recorded as “no binding”.
“GGGAGCUCAGAAUAAACGCUCAACUAGUUCAACCGUCCCUUCUAACAACCGUCUUCGACAUGAGGCCCGGAUCCGGC [TNF 15C 2'F]”: in data set [2] (variant of TNF 15C), the binding result is listed as “no binding”.
For “GGGAGCUCAGAAUAAACGCUCAAGCGAACGUCAUGCCGCCUCAUCAUGCCACGUUCGACAUGAGGCCCGGAUCCGGC [TNF 3C]”, in data set [2] (no Kd shown means above 1 uM), the Kd is above 1 µM.
In the case of “GGGAGCUCAGAAUAAACGCUCAAGCGCUUGACCAUUUCGUAGGGUCGCCCUUGUUCGACAUGAGGCCCGGAUCCGGC [TNF 2A]”, the Kd in data set [2] (no Kd shown means above 1 uM) was above 1 µM.
As for “GGGAGCUCAGAAUAAACGCUCAAGGUGUGCCAAAGGCCCUUGAGAGAGGCGUAUUCGACAUGAGGCCCGGAUCCGGC [TNF 24A]”, the Kd in data set [2] (no Kd shown means above 1 uM) is above 1 µM.
For “GGGAGCUCAGAAUAAACGCUCAAGGUGUGCCCAAGGCCCUUGAGAGAGGCGUGUUCGACAUGAGGCCCGGAUCCGGC [TNF 20A]”, the Kd in data set [2] (no Kd shown means above 1 uM) is above 1 µM.
With “GGGAGCUCAGAAUAAACGCUCAAGGUGUGCCCCUACGUGCGGCCCUUCGUUUAUUCGACAUGAGGCCCGGAUCCGGC [TNF 13C]”, in data set [2] (no Kd shown means above 1 uM), the Kd is above 1 µM.
Consider “GGGAGCUCAGAAUAAACGCUCAAGUCCACACUUUGCCGAGCGUCCUAGUGUUCGACAUGAGGCCCGGAUCCGGC [TNF 28A]”, for which the dissociation constant Kd in data set [2] (no value shown, but printed sequence identical to 8C (430 nM)) is above 1 µM.
As to “GGGAGCUCAGAAUAAACGCUCAAGUCCGCAUGAUGCUUCGAACAGCAUACAACUUCGACAUGAGGCCCGGAUCCGGC [TNF 12C 2'F]”, the binding result in data set [2] (variant of TNF 12C) is given as “no binding”.
On to “GGGAGCUCAGAAUAAACGCUCAAGUCGCUCGAUCGUUUCAUGCCCGUCCGACCUUCGACAUGAGGCCCGGAUCCGGC [TNF 18A]”, for which the Kd in data set [2] (no Kd shown means above 1 uM) is above 1 µM.
Turning to “GGGAGCUCAGAAUAAACGCUCAAGUGGAGGGUACGUGGAGGGGAGAGCGAUAUUCGACAUGAGGCCCGGAUCCGGC [TNF 9A]”, in data set [2] (no Kd shown means above 1 uM), the Kd was above 1 µM.
Turning to “GGGAGCUCAGAAUAAACGCUCAAUCCCUCAGUGUCAAGUGCGUCGCCUCAGCAUUCGACAUGAGGCCCGGAUCCGGC [TNF 11A]”, the Kd in data set [2] (no Kd shown means above 1 uM) is above 1 µM.
As for “GGGAGCUCAGAAUAAACGCUCAAUCUCAUGCUCGCGUGCGUCGCCUCAACCAUUCGACAUGAGGCCCGGAUCCGGC [TNF 10A]”, in data set [2] (no Kd shown means above 1 uM), the Kd is above 1 µM.
With “GGGAGCUCAGAAUAAACGCUCAAUGAGGCGCGCCACAGGAUGGCCCUCAACCCUUCGACAUGAGGCCCGGAUCCGGC [TNF 11C 2'F]”, the binding result in data set [2] (variant of TNF 11C) is listed as “no binding”.
Take “GGGAGCUCAGAAUAAACGCUCAAUGUCAUGCAUGUGUGUCGCCUCAUCACGCAUUCGACAUGAGGCCCGGAUCCGGC [TNF 5A]”: the Kd in data set [2] (no Kd shown means above 1 uM) is above 1 µM.
Consider “GGGAGCUCAGAAUAAACGCUCAAUGUCGAGUGCGAUGGAGGAGUAGGGAUGCAUUCGACAUGAGGCCCGGAUCCGGC [TNF 18C 2'F]”, for which the binding result in data set [2] (variant of TNF 18C) is on record as “no binding”.
As to “GGGAGCUCAGAAUAAACGCUCAAUGUCGAUCGUGUCAAGGUCCGUCCUACUUCUUCGACAUGAGGCCCGGAUCCGGC [TNF 19C 2'F]”, the binding result in data set [2] (variant of TNF 19C) was “no binding”.
Take “GGGAGCUCAGAAUAAACGCUCAAUUCGAAGCCACGUUUCAUGUCCGUCGCUGCUUCGACAUGAGGCCCGGAUCCGGC [TNF 7A]”: the Kd in data set [2] (no Kd shown means above 1 uM) was above 1 µM.
